At least one structure is not confirmed: it was looked up by name or label, or the drawing left a doubt.
Tested on: PGC-1α/β KO cells
Assay: Pyruvate supplementation of PGC-1α/β KO cells with or without DMOG, mitochondrial-encoded gene expression
Type: cell-based, mouse
Details: 24 h
Description: FIGS. 21A-21N provide additional data related to the content of FIG. 14. FIG. 21A depicts HIF-1α target genes (PGK-1, Glut1, PDK1 and Vegfa) expression in gastrocnemius of WT and SIRT1 KO mice. Relative expression values were normalized to WT mice (n=5). FIG. 21B depicts hypoxia response element activity in primary myoblasts isolated from WT and SIRT1 KO mice and treated with or without DMOG. Relative luciferase activity was normalized to WT cells (n=6, *p<0.05 versus WT). FIG. 21C depicts a representative immunoblot of HIF-1a and Tubulin in PGC-1α/β KO myotubes treated with adenovirus overexpressing SIRT1 or empty vector as well as treatment with DMSO or with HIF stabilizing compound DMOG. FIG. 21D depicts NAD+/NADH ration measured in primary WT myoblasts treated with either 10 mM pyruvate, 10 mM lactate or vehicle for 24 h (n=4). […] FIG. 21J depicts mitochondrial DNA content analyzed by qPCR in control, HIF-1α DPA or HIF-2α DPA C2C12 cells treated with adenovirus overexpressing SIRT1 or empty vector. […] FIG. 21K depicts ARNT mRNA analyzed by qPCR in C2C12 cells infected with ARNT or nontargeting shRNA. […] FIG. 21L depicts mitochondrial DNA content analyzed by qPCR in C2C12 cells infected with ARNT or nontargeting shRNA. […] FIG. 21M depicts ND1, Cytb, COX1 and ATP6 mRNA analyzed by qPCR in C2C12 cells infected with ARNT or nontargeting shRNA. […] Values are expressed as mean±SEM. […]

Compound: CC(=O)C(=O)O [pyruvate]
- expression of mitochondrial-encoded genes (10 mM pyruvate): increased mitochondrial-encoded genes
- NAD+ levels (supplementation with 10 mM pyruvate): increasing

— patent US20200291100A1, “TREATMENT OF AGE-RELATED AND MITOCHONDRIAL DISEASES BY INHIBITION OF HIF-1 ALPHA FUNCTION” (President and Fellows of Harvard College, priority 2012, published 2020)
